Not every detail of the peptide structures is certain; ends, links or a residue may be inferred. Ends that are not written are not given here. Peptide text beside a SMILES is read from it.
What was measured:
[1] = test system: human PMN; assay: fMLP-stimulated PMN migration in collagen (type I) gels; format: cell-based; settings: collagen (type I) gel, fMLP 10^-7 M, 30 min at 37°C, peptide 5 mM
[2] = test system: PMN; assay: Intravital time lapse videomicroscopy of PAF-stimulated PMN locomotion in rat mesenteric tissue in vivo; settings: rat mesentery, PAF 10^-7 M
Experimental: Intravital time lapse videomicroscopy of PMN locomotion in vivo. PMN locomotion in rat mesenteric tissue was studied through use of intravital time lapse videomicroscopy according to the protocol previously described in detail (Werr et al., supra). In brief, Wistar rats (200-250 g) were anesthetized with equal parts of fluanison/fentanyl (10/0.2 mg/ml; Hypnorm; Janssen-Cilag Ltd., Saunderton, UK) and midazolam (5 mg/ml; Dormicum; Hoffman-La Roche, Basel, Switzerland) diluted 1:1 with sterile water (2 ml/kg i.m.). Body temperature was maintained at 37° C by a heating pad connected to a rectal thermistor. After laparotomy, a segment of the ileum was exposed on a heated transparent pedestal to allow microscopic observation of the mesenteric microvasculature (Orthoplan microscope equipped with water immersion lens SW×25, NA 0.60; Leitz, Wetzlar, Germany). The microscopic image was televised and recorded on time lapse video (at 1/7 of normal speed). Analysis of leukocyte migration in the mesenteric tissue was made off line and the migration path of individual leukocytes was tracked with a digital image analyzer.
Leukocyte extravasation and migration was induced by soaking the exposed mesentery with 5 ml bicarbonate buffer solution (37° C) containing PAF at a concentration of 10^-7 M. The tissue was then covered with a transparent plastic film to provide continuos chemotactic stimulation by PAF. After 40 min of chemotactic stimulation, when numerous leukocytes had extravasated, time lapse recording of leukocyte migration was undertaken, first for 20 min to assess basal migration rates in response to PAF stimulation, and then for additional 40 min in the presence of PAF together with antibodies or peptides. The antibody concentration in the mixture administered to the tissue was for all antibodies 100 µg/ml. The peptide DGEA was similarly administered at a concentration of 25 mM and SLIDIP/RGDGW at a concentration of 500 µM. […]

Row | Molecule | migration distance of the leading front of fMLP-stimulated PMN [1] | inhibition of PMN migration velocity ([2]; topical administration, peptide 25 mM, p<0.001) [%] | effect on PMN migration at ten-fold higher concentrations ([2]; ten-fold higher concentrations than 500 µM, some experiments) | effect on PMN migration ([2]; topical administration, peptide 500 µM)
1 | C[C@H](NC(=O)[C@H](CCC(=O)O)NC(=O)CNC(=O)[C@@H](N)CC(=O)O)C(=O)O [DGEA] (H-DGEA-OH) | reduced the migration distance of fMLP-stimulated PMN to the level of non-stimulated cells | 70 ± 10 | – | –
2 | SLIDIP [SLIDIP] | – | – | did not yield different effects | without effect

— patent EP1121151B1, “ANTI-INFLAMMATORY ALPHA2, BETA1 INTEGRIN-RELATED SUBSTANCES OR ANTIBODIES” (Lindbom, Lennart, priority 1998, dated 2006)
